# Measured values reported in the supplement of paper PMC8728848.
# This is one part of the list.
# B1: Sp8391B-bot-388-20-388 (Bacteroides ovatus) (protein)
# chain: GCQNNDENEQHYDNKLFISASNFTKEILFKAGDTNVETGLSVAIAKPEEHDIKVTMSPAPELLSTYKLAYYDETAVLLSEEHYSMPETSTTIKSGSIVSPELPIEFINTGELDIKTTYVLPVTIKSVEGIGVLQSAKTYYYVFRGASLINVVCNISRNRAYPDFKNDSKFNNLTENTMEILFKANSFPNTLNTLMGIESNYLLRIGDATIPNNQLQVATSVNNCTSADLQLESGKWYHVAVAFNKGNVKVYINGVEKLSGSTGKSSVSLGAKHTNEEDGSRCFWVGYSYKDDRYFDGVVSEVRIWNRALTAEEIQATNHFYTIEPESEGLIAYWKFDEGSGTVAKDYSVSGYDLTIEKEPKWESVSLPQ
# Assays:
# Assay in all cases: glycan array binding signal (z-score within array); higher = stronger binding
# Conditions in all cases: glycan notation: IUPAC condensed, linker removed
# Neu5Ac(a2-8)Neu5Ac = target: Neu5Ac(a2-8)Neu5Ac
# In short: (§1)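 Arrays were curated from the Consortium for Functional Glycomics database, 3228 in total, and kept only where the protein sequence was available. Binding is expressed as a within-array Z-score. This score was averaged across arrays of the same protein sequence at different concentrations or buffers and across linkers, and negative values can be read as non-binding.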
# [1] = target: Neu5Ac(a2-8)Neu5Ac(a2-3)Gal(b1-3)GalNAc(b1-4)[Neu5Ac(a2-3)]Gal(b1-4)Glc
# In short: as §1
# [2] = target: Neu5Ac(a2-8)Neu5Ac(a2-3)Gal(b1-3)GalNAc(b1-4)[Neu5Ac(a2-8)Neu5Ac(a2-3)]Gal(b1-4)Glc
# In short: as §1
# [3] = target: Neu5Ac(a2-8)Neu5Ac(a2-3)Gal(b1-4)Glc
# In short: as §1
# [4] = target: Neu5Ac(a2-8)Neu5Ac(a2-3)Gal(b1-4)GlcNAc
# In short: as §1
# [5] = target: Neu5Ac(a2-8)Neu5Ac(a2-3)[Gal(b1-3)GalNAc(b1-4)]Gal(b1-4)Glc
# In short: as §1
# [6] = target: Neu5Ac(a2-8)Neu5Ac(a2-3)[GalNAc(b1-4)]Gal(b1-4)Glc
# In short: as §1
# [7] = target: Neu5Ac(a2-8)Neu5Ac(a2-8)Neu5Ac
# In short: as §1
# [8] = target: Neu5Ac(a2-8)Neu5Ac(a2-8)Neu5Ac(a2-3)Gal(b1-4)Glc
# In short: as §1
# [9] = target: Neu5Ac(a2-8)Neu5Ac(a2-8)Neu5Ac(a2-3)[Gal(b1-3)GalNAc(b1-4)]Gal(b1-4)Glc
# In short: as §1
# [10] = target: Neu5Ac(a2-8)Neu5Ac(a2-8)Neu5Ac(a2-3)[GalNAc(b1-4)]Gal(b1-4)Glc
# In short: as §1
# [11] = target: Neu5Ac(a2-8)Neu5Ac(a2-8)Neu5Ac(a2-8)Neu5Ac(a2-3)[GalNAc(b1-4)]Gal(b1-4)Glc
# In short: as §1
# [12] = target: Neu5Ac(a2-8)Neu5Gc(a2-3)Gal(b1-4)GlcNAc
# In short: as §1
# [13] = target: Neu5Ac(b2-6)Gal(b1-4)GlcNAc
# In short: as §1
# Neu5Ac(b2-6)GalNAc = target: Neu5Ac(b2-6)GalNAc
# In short: as §1
# [14] = target: Neu5Ac9Ac(a2-3)Gal(b1-3)GlcNAc
# In short: as §1
# [15] = target: Neu5Ac9Ac(a2-3)Gal(b1-4)GlcNAc
# In short: as §1
# [16] = target: Neu5Ac9Ac(a2-6)Gal(b1-4)GlcNAc
# In short: as §1
# [17] = target: Neu5Gc(a2-3)Gal(b1-3)GlcNAc
# In short: as §1
# [18] = target: Neu5Gc(a2-3)Gal(b1-3)[Fuc(a1-4)]GlcNAc
# In short: as §1
# Neu5Gc(a2-3)Gal(b1-4)Glc = target: Neu5Gc(a2-3)Gal(b1-4)Glc
# In short: as §1
# [19] = target: Neu5Gc(a2-3)Gal(b1-4)GlcNAc
# In short: as §1
# [20] = target: Neu5Gc(a2-3)Gal(b1-4)GlcNAc(b1-3)Gal(b1-4)GlcNAc(b1-2)Man(a1-3)[Neu5Gc(a2-3)Gal(b1-4)GlcNAc(b1-3)Gal(b1-4)GlcNAc(b1-2)Man(a1-6)]Man(b1-4)GlcNAc(b1-4)GlcNAc
# In short: as §1
# [21] = target: Neu5Gc(a2-3)Gal(b1-4)[Fuc(a1-3)]GlcNAc
# In short: as §1
# [22] = target: Neu5Gc(a2-6)Gal(b1-4)GlcNAc
# In short: as §1
# Neu5Gc(a2-6)GalNAc = target: Neu5Gc(a2-6)GalNAc
# In short: as §1
# [23] = target: Neu5Gc(a2-8)Neu5Ac(a2-3)Gal(b1-4)GlcNAc
# In short: as §1
# [24] = target: Neu5Gc(a2-8)Neu5Gc(a2-3)Gal(b1-4)GlcNAc
# In short: as §1
# [25] = target: Neu5Gc(a2-8)Neu5Gc(a2-3)Gal(b1-4)GlcNAc(b1-3)Gal(b1-4)GlcNAc
# In short: as §1
# [26] = target: Neu5Gc(a2-8)Neu5Gc(a2-6)Gal(b1-4)GlcNAc
# In short: as §1
# [27] = target: Neu5Gc(b2-6)Gal(b1-4)GlcNAc
# In short: as §1
binder,measurement,setting,value
B1,glycan array binding signal (z-score),Neu5Ac(a2-8)Neu5Ac,0.603
same,glycan array binding signal (z-score),[1],-0.67
same,glycan array binding signal (z-score),[2],-0.512
same,glycan array binding signal (z-score),[3],-0.27
same,glycan array binding signal (z-score),[4],-0.447
same,glycan array binding signal (z-score),[5],-0.389
same,glycan array binding signal (z-score),[6],0.19
same,glycan array binding signal (z-score),[7],-0.412
same,glycan array binding signal (z-score),[8],0.117
same,glycan array binding signal (z-score),[9],1.09
same,glycan array binding signal (z-score),[10],-0.456
same,glycan array binding signal (z-score),[11],0.263
same,glycan array binding signal (z-score),[12],1.29
same,glycan array binding signal (z-score),[13],0.013
same,glycan array binding signal (z-score),Neu5Ac(b2-6)GalNAc,0.549
same,glycan array binding signal (z-score),[14],-0.653
same,glycan array binding signal (z-score),[15],0.166
same,glycan array binding signal (z-score),[16],-0.27
same,glycan array binding signal (z-score),[17],-0.666
same,glycan array binding signal (z-score),[18],-0.742
same,glycan array binding signal (z-score),Neu5Gc(a2-3)Gal(b1-4)Glc,0.407
same,glycan array binding signal (z-score),[19],-0.081
same,glycan array binding signal (z-score),[20],-0.078
same,glycan array binding signal (z-score),[21],-0.7
same,glycan array binding signal (z-score),[22],-0.424
same,glycan array binding signal (z-score),Neu5Gc(a2-6)GalNAc,0.187
same,glycan array binding signal (z-score),[23],-0.076
same,glycan array binding signal (z-score),[24],-0.726
same,glycan array binding signal (z-score),[25],-1.02
same,glycan array binding signal (z-score),[26],-0.292
same,glycan array binding signal (z-score),[27],-0.136

# In another format: entries from further up
binder	measurement	setting	value
B1	glycan array binding signal (z-score)	[6]	0.19
same	glycan array binding signal (z-score)	[7]	-0.412
